{"source": "paper PMC7244589", "key": {"FLAG-hnRNP H1": {"target": "T1, FLAG-hnRNP H1 (UniProt P31943)", "T1 sequence (looked up, limits assumed)": "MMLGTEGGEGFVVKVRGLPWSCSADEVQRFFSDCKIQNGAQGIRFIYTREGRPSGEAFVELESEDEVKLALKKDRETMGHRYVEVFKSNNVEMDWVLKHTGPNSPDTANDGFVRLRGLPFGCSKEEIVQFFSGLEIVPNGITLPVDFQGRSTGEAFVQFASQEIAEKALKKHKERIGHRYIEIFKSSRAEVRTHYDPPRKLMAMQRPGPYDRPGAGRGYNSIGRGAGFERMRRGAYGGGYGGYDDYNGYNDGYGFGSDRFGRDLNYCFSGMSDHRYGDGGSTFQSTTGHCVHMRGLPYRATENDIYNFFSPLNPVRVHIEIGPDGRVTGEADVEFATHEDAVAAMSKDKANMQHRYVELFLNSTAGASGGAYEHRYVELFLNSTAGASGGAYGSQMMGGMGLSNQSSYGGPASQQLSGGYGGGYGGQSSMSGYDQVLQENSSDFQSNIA", "test": "pull-down", "conditions": "pull-down: HeLa whole cell extract, streptavidin beads, salt and pH not given, protein in a lysate after overexpression, protein details: FLAG, letters put together from the description"}, "FLAG-hnRNP F": {"target": "T2, FLAG-hnRNP F (UniProt P52597)", "T2 sequence (looked up, limits assumed)": "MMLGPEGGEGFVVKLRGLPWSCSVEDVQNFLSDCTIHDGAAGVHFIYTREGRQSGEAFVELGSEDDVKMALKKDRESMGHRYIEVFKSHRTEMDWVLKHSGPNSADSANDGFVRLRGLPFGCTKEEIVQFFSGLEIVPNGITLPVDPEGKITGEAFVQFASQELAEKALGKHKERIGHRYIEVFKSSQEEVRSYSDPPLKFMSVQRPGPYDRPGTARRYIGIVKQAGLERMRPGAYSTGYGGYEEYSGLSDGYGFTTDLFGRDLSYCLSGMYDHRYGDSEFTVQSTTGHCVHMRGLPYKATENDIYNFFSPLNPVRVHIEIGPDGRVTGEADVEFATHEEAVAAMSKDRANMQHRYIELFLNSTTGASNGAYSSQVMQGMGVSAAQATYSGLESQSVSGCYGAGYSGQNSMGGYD", "test": "pull-down", "conditions": "pull-down: HeLa whole cell extract, streptavidin beads, salt and pH not given, protein in a lysate after overexpression, protein details: FLAG, letters put together from the description"}, "FLAG-hnRNP H2": {"target": "T3, FLAG-hnRNP H2 (UniProt P55795)", "T3 sequence (looked up, limits assumed)": "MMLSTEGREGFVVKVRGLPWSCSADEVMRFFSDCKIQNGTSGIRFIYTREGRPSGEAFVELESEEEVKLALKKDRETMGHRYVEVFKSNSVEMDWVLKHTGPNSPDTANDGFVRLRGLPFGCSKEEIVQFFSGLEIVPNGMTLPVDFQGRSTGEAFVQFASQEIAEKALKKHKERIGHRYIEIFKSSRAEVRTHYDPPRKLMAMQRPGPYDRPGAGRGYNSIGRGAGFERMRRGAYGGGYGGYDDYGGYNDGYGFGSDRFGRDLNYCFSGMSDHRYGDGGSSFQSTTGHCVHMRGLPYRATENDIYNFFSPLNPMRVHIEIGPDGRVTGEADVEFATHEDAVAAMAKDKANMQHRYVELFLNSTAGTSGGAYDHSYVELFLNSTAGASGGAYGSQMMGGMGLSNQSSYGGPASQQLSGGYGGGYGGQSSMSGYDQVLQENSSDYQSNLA", "test": "pull-down", "conditions": "pull-down: HeLa whole cell extract, streptavidin beads, salt and pH not given, protein in a lysate after overexpression, protein details: FLAG, letters put together from the description"}, "GST-hnRNP H2": {"target": "GST-hnRNP H2 (UniProt P55795)", "test": "EMSA", "conditions": "RNA EMSA: LightShift REMSA kit, 1.5 nM biotin RNA, 30 min room temperature, 4% native PAGE; recombinant protein; protein details: GST; label: biotin; probe letters rebuilt from the primers and the genome; part of a longer molecule"}, "GST-hnRNP H1": {"target": "GST-hnRNP H1 (UniProt P31943)", "test": "EMSA", "conditions": "RNA EMSA: LightShift REMSA kit, 1.5 nM biotin RNA, 30 min room temperature, 4% native PAGE; recombinant protein; protein details: GST; label: biotin; probe letters rebuilt from the primers and the genome; part of a longer molecule"}, "GST-hnRNP F": {"target": "GST-hnRNP F (UniProt P52597)", "test": "EMSA", "conditions": "RNA EMSA: LightShift REMSA kit, 1.5 nM biotin RNA, 30 min room temperature, 4% native PAGE; recombinant protein; protein details: GST; label: biotin; probe letters rebuilt from the primers and the genome; part of a longer molecule"}, "[1]": {"conditions": "almost completely lost, label: 3' biotin"}}, "note": "Construct, isoform or probe ends are uncertain for at least one entry. The comparison behind a weaker result is the experiment's own reference, which may not be listed here. For part of these data: At least one result comes from cells or an extract, where the contact may be indirect. For part of these data: No signal at the amounts used counts as a negative. For part of these data: Protein sequences can lack the tags named with them.", "data": [{"sequence": "GGGUUGCGGA [F30 1-10]", "values": [{"measurement": "binding result", "setting": "FLAG-hnRNP H1; [1]", "result": "no binding"}, {"measurement": "binding result", "setting": "FLAG-hnRNP F; [1]", "result": "no binding"}, {"measurement": "binding result", "setting": "FLAG-hnRNP H2; [1]", "result": "no binding"}]}, {"sequence": "GGGUUGCGGAGGGU [F30 1-14]", "values": [{"measurement": "binding result", "setting": "FLAG-hnRNP H1; [1]", "result": "no binding"}, {"measurement": "binding result", "setting": "FLAG-hnRNP F; [1]", "result": "no binding"}, {"measurement": "binding result", "setting": "FLAG-hnRNP H2; [1]", "result": "no binding"}]}, {"sequence": "GGGUUGCGGAGGGUGGGC [F30 1-18]", "values": [{"measurement": "binding result", "setting": "FLAG-hnRNP H1; label: 3' …", "result": "binds more weakly"}, {"measurement": "binding result", "setting": "FLAG-hnRNP F; label: 3' …", "result": "binds more weakly"}, {"measurement": "binding result", "setting": "FLAG-hnRNP H2; label: 3' …", "result": "binds more weakly"}]}, {"sequence": "GGGUUGCGGAGGGUGGGCCUGGGA [F30 1-24]", "values": [{"measurement": "binding result", "setting": "FLAG-hnRNP H1; label: 3' …", "result": "binds"}, {"measurement": "binding result", "setting": "FLAG-hnRNP F; label: 3' …", "result": "binds"}, {"measurement": "binding result", "setting": "FLAG-hnRNP H2; label: 3' …", "result": "binds"}]}, {"sequence": "GUUGCGGAGGGUGGGCCUGGGAGGGGUGGUGGCCAUUUUUUGUCUAACCCUAACUGAGAAGGGCGUAGGCGCCGUGCUUUUGCUCCCCGCGCGCUGUUUUUCUCGCUGACUUUCAGCGGGCGGAAAAGCCUCGGCCUGCCGCCUUCCACCGUUCAUUCUAGAGCAAACAAAAAAUGUCAGCUGCUGGCCCGUUCGCCCCUCCCGGGGACCUGCGGCGGGUCGCCUGCCCAGCCCCCGAACCCCGCCUGGAGGCCGCGGUCGGCCCGGGGCUUCUCCGGAGGCACCCACUGCCACCGCGAAGAGUUGGGCUCUGUCAGCCGCGGGUCUCUCGGGGGCGAGGGCGAGGUUCAGGCCUUUCAGGCCGCAGGAAGAGGAACGGAGCGAGUCCCCGCGCGCGGCGCGAUUCCCUGAGCUGUGGGACGUGCACCCAGGACUCGGCUCACACAUGC [M1]", "values": [{"measurement": "binding result", "setting": "GST-hnRNP H2", "result": "binds more weakly"}, {"measurement": "binding result", "setting": "GST-hnRNP H1", "result": "binds more weakly"}, {"measurement": "binding result", "setting": "GST-hnRNP F", "result": "binds more weakly"}]}]}
